Construct, isoform or probe ends are uncertain for at least one entry. Negatives hold for the conditions tested.
System: Human immunoglobulin G (HIgG) (Homo sapiens)
Assay: binding assay
Conditions: 5'-SH (thiol), immobilised on Au segment of nanomotor; selectivity control, 20 nM HIgG in PBS; methylene blue release fluorescence; label: methylene blue (non-covalently adsorbed); single-stranded DNA

## TTTCCCGTCTTCCAGACAAGAGTGCAGGG [anti-VEGF DNA aptamer]
  binding result: no binding

Source: patent publication US20180087116, “METHODS AND BIOSENSORS FOR TUMOR DETECTION” (published 2018)
